From paper PMC10847424
Results are given in words; binding and its absence hold for the method and conditions named. In cells and extracts the contact can be indirect. Some entries that bind do so weakly or less than the wild type. For some of these results: Sequences can lack the tags named with a protein. One block for each substance: values may come before it.

Amino acid sequences for entries named in this document (tags omitted). Residues count along the entry.
UniProt Q62318: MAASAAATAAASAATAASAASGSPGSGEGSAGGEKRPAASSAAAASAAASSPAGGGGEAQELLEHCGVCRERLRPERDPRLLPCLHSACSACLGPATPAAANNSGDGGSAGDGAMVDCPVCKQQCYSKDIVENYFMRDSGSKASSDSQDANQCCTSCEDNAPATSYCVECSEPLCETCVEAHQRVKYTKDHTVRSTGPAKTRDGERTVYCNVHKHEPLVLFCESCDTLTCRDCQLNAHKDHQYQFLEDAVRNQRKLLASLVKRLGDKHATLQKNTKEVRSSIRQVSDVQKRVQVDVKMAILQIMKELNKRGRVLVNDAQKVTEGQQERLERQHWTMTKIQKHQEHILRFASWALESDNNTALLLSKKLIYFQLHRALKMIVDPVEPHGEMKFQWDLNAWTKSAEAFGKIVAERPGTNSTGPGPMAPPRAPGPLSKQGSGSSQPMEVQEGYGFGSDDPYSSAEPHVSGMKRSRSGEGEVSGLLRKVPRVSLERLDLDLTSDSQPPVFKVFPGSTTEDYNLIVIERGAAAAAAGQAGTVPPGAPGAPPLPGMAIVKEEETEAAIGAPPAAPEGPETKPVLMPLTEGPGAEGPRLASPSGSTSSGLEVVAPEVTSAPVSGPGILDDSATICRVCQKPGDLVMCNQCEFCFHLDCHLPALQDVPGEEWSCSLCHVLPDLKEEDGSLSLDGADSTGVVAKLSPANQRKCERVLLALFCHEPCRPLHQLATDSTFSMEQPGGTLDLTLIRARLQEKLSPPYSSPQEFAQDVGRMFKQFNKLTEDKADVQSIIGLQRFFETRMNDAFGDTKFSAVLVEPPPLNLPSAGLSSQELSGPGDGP
UniProt P14625, residues 22-803: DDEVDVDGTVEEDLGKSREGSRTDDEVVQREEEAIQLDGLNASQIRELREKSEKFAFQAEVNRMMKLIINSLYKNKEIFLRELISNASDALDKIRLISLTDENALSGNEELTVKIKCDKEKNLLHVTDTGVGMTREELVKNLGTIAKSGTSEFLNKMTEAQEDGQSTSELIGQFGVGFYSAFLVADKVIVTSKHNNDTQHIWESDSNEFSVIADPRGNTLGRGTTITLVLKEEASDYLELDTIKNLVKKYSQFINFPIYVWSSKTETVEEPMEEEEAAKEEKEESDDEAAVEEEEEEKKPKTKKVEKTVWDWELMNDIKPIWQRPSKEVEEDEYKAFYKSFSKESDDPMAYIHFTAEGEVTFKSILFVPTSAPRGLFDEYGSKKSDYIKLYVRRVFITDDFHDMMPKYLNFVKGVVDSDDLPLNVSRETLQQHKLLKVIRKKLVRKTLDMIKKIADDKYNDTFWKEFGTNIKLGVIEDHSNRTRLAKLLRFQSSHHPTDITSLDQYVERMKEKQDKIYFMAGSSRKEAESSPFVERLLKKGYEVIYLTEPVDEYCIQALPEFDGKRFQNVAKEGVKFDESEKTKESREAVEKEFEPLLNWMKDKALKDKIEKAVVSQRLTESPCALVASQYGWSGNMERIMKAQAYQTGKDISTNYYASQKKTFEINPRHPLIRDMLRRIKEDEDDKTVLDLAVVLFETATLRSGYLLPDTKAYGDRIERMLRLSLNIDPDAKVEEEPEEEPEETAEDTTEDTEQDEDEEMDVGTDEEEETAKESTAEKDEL
UniProt P08113, residues 22-802: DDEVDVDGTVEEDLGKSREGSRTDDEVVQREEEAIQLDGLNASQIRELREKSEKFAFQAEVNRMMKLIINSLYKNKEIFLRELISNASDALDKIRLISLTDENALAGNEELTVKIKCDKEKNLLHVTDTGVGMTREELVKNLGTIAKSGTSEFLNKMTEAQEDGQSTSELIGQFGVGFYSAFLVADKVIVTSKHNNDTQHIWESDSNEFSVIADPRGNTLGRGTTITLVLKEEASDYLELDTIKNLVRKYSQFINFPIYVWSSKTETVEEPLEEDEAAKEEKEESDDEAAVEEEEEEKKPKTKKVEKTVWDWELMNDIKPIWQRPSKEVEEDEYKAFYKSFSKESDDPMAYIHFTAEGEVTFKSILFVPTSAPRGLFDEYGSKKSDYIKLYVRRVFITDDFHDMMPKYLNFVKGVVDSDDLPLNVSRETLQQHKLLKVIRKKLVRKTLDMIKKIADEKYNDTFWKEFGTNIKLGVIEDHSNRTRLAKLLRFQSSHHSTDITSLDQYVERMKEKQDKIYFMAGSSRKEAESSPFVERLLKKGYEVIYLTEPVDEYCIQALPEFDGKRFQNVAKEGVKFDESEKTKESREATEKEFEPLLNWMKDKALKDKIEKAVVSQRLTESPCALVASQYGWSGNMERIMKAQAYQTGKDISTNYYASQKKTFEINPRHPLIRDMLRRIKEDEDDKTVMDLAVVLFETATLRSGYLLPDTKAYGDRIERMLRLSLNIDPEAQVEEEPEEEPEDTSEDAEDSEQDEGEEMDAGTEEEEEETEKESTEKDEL

How the values were obtained:
[1] = biological target: HA-Trim28 (UniProt Q62318); assay: co-IP; exogenous co-IP in HEK293 lysates (WT, gp96 knockout, with gp96 overexpressed, or stably expressing Eomes or Flag-gp96); anti-HA, anti-flag or anti-myc beads 3 h, washes with 20 mM Tris-HCl, 125 mM NaCl, 5 mM MgCl2, 0.2 mM EDTA, 0.1% NP-40
[2] = biological target: T1, His-Eomes (UniProt O54839); assay: co-IP; WT and gp96 knockout 293 cells co-transfected with His-Eomes and GFP-P62, treated as in Fig. 6H (CQ or MG132), IP-Western
T1 sequence: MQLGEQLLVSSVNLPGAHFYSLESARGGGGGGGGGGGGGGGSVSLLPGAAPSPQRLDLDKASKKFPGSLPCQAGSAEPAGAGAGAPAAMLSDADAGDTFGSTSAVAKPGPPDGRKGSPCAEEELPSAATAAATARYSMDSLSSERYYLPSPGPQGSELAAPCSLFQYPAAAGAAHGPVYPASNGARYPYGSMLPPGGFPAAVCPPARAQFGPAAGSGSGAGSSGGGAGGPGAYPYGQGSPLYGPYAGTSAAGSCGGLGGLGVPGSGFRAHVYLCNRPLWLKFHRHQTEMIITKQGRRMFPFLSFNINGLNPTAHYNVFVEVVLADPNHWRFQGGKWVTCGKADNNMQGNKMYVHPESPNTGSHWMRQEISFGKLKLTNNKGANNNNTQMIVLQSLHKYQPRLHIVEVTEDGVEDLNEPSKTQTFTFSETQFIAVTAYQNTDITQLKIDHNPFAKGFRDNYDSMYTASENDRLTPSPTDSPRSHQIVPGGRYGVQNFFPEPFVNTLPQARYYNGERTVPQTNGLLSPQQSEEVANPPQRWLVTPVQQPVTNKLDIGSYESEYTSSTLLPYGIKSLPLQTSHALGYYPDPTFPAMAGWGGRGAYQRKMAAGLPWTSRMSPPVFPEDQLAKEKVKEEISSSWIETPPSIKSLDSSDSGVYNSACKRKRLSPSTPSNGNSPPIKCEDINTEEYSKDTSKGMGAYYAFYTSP

[3] = biological target: T2, Eomes (endogenous, mouse NK cells) (mouse (endogenous in primary NK cells)) (UniProt O54839); assay: co-IP; immunoprecipitation from cytosol, nucleus and total membrane (ER and plasma membrane) fractions of NK cells
T2 sequence: T1 sequence

[4] = biological target: Trim28 (endogenous, mouse NK cells) (mouse (endogenous in primary NK cells)) (UniProt Q62318); assay: as above

- binding [1]: binds
Substance: Flag-gp96 (from UniProt P14625 22-803)

- binding [2]: binds
Substance: GFP-P62 (from UniProt Q13501 1-440)

- binding [3]: binds
- binding [4]: binds
Substance: gp96 (endogenous, NK cells) (from UniProt P08113 22-802)
